Experimental data reported in PubChem BioAssay AID180 (DTP/NCI, 2004).
The list is a part of this screen's results and no random one: it gathers tests that were run many times, whatever their T/C, doses with no T/C, and many T/C values between a quarter and a half above the control. Further doses and runs are listed elsewhere. T/C is the treated group as % of the vehicle group. Schedules are NCI's codes, read here as Q, the interval in days (D) or hours (H), X, the number of doses. Some T/C values carry the count of animals alive at the toxicity check (mostly the fifth day); where none is given, no animal had died by that day. Some entries were tested several times; the results are listed from low to high. Signs of the kind (2×) stand for listed records that agree. Some doses have a count of surviving animals in place of a T/C: the source holds a T/C of zero for them, seemingly a mark for toxic or unscored doses. Counts of survivors are from the toxicity check (mostly the fifth day) where no day follows; animals may have died later.

Tested on: BDF1 mice, Adenocarcinoma 755 s.c., tumor weight T/C
Assay: NCI In Vivo Anticancer Drug Screen. Data for tumor model Adenocarcinoma 755 (subcutaneous) in B6D2F1 (BDF1) mice
Conditions: T/C endpoint: mean tumor weight, higher T/C = larger tumour; for T/C: evaluated on day 12
In short: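 In vivo antitumor screen on a transplantable tumor line. Result equals the measure in compound-treated animals divided by the same measure in vehicle controls.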

[1] = dose: 200.0 mg/kg/injection, schedule: Q01DX011 (ip), vehicle: other

CC(=O)[C@H]1[C@H](C)C[C@H]2[C@@H]3CCC4=CC(=O)CC[C@]4(C)[C@@]3(F)[C@@H](O)C[C@@]21C
survivor count (dose: 700.0 mg/kg/injection, schedule: Q01DX011 (sc), vehicle: steroid suspending solution): 2 of 10

C=CC(O)CN1CC1(C)C (centres undefined) (tested in a mixture with another compound)
T/C (dose: 7.5 mg/kg/injection, schedule: Q01DX011 (ip), vehicle: methylcellulose (MC)): 130 % of control

CCOc1ccccc1C(=O)Nc1ccc(Br)cc1
survivor count (dose: 600.0 mg/kg/injection, schedule: Q01DX011 (ip), vehicle: carboxymethylcellulose (CMC)): 6 of 12

Nc1nc(N)c(N=O)c(Nc2ccc(Cl)c(Cl)c2)n1
survivor count (dose: 7.0 mg/kg/injection, schedule: Q01DX011 (ip), vehicle: methylcellulose (MC)): 6 of 10 | survivor count (dose: 9.0 mg/kg/injection, schedule: Q01DX011 (ip), vehicle: methylcellulose (MC)): 6 of 10 | survivor count (dose: 28.0 mg/kg/injection, schedule: Q01DX011 (ip), vehicle: methylcellulose (MC)): 4 of 10 | survivor count (dose: 57.0 mg/kg/injection, schedule: Q01DX011 (ip), vehicle: methylcellulose (MC)): 1 of 10 | survivor count (dose: 114.0 mg/kg/injection, schedule: Q01DX011 (ip), vehicle: methylcellulose (MC)): 1 of 10 | survivor count (dose: 456.0 mg/kg/injection, schedule: Q01DX011 (ip), vehicle: carboxymethylcellulose (CMC)): 6 of 10 | survivor count (dose: 912.0 mg/kg/injection, schedule: Q01DX011 (ip), vehicle: carboxymethylcellulose (CMC)): 4 of 10 | survivor count (dose: 1824.0 mg/kg/injection, schedule: Q01DX011 (ip), vehicle: carboxymethylcellulose (CMC)): 5 of 10

CN(C)/N=N/c1nc[nH]c1C(N)=O
survivor count (dose: 200.0 mg/kg/injection, schedule: Q01DX011 (ip), vehicle: methylcellulose (MC)): 6 of 10 | survivor count (dose: 250.0 mg/kg/injection, schedule: Q01DX011 (ip), vehicle: carboxymethylcellulose (CMC)): 2 of 10 | survivor count (dose: 300.0 mg/kg/injection, schedule: Q01DX011 (ip), vehicle: saline): 4 of 10 | survivor count (dose: 320.0 mg/kg/injection, schedule: Q01DX011 (ip), vehicle: carboxymethylcellulose (CMC)): 1 of 10 | survivor count (dose: 640.0 mg/kg/injection, schedule: Q01DX011 (ip), vehicle: carboxymethylcellulose (CMC)): 0 of 10

O=C(Nc1ccc(C2=NCCS2)cc1)c1ccc(C(=O)Nc2ccc(C3=NCCS3)cc2)cc1
T/C (dose: 15.0 mg/kg/injection, schedule: Q01DX011 (ip), vehicle: methylcellulose (MC)): 135 % of control | T/C (dose: 60.0 mg/kg/injection, schedule: Q01DX011 (ip), vehicle: methylcellulose (MC)): 134 % of control [7 of 10 alive]

COc1ccc(-c2c(C)c(C(=O)O)nc(-c3ccc4c(O)c(OC)c5c(c4n3)=NC(C)(C)N=5)c2N)c(O)c1OC
survivor count (dose: 20.0 mg/kg/injection, schedule: Q01DX011 (oral), vehicle: water): 3 of 12 | survivor count (dose: 67.0 mg/kg/injection, schedule: Q01DX001 (ip), vehicle: water): 4 of 10 | survivor count (dose: 75.0 mg/kg/injection, schedule: Q07DX002 (ip), vehicle: water): 4 of 10 | survivor count (dose: 100.0 mg/kg/injection, schedule: Q01DX001 (ip), vehicle: water): 1 of 10 and 4 of 10

Nc1nc2n[nH]nc2c(=O)[nH]1
T/C (dose: 25.0 mg/kg/injection, schedule: Q01DX011 (ip), vehicle: other): 28, 29, 48 [9 of 10 alive], 50, 51, 52, 54, 58, 59 (2×), 61, 63, 68 (2×), 70, 77, 80, 84, 87 [9 of 10 alive], 104 [9 of 10 alive], 105, 109, 111, 121 % of control | T/C (dose: 50.0 mg/kg/injection, schedule: Q01DX011 (ip), vehicle: other): 5, 11, 15 (2×), 16, 17 [9 of 10 alive], 20, 21 [9 of 10 alive], 24 [9 of 10 alive], 25, 27, 28 (2×), 29, 35, 37 (2×), 42, 42 [9 of 10 alive], 44 [7 of 10 alive], 52, 59, 61 [8 of 10 alive], 74 % of control | T/C (dose: 100.0 mg/kg/injection, schedule: Q01DX011 (ip), vehicle: other): 1 [9 of 10 alive], 2 [9 of 10 alive], 3 [9 of 10 alive], 4 (2×), 4 [7 of 10 alive], 5 (4×), 6 (4×), 8, 8 [9 of 10 alive], 9, 10 [8 of 10 alive], 11 (3×), 13, 16 % of control [7 of 10 alive] | survivor count (dose: 108.4 mg/kg/injection, schedule: Q01DX011 (ip), vehicle: carboxymethylcellulose (CMC)): 2 of 10 | T/C [1]: 1 [6 of 9 alive], 1 [7 of 10 alive] (2×), 1 [8 of 10 alive], 1 [9 of 10 alive], 2, 2 [7 of 10 alive], 3, 3 [7 of 10 alive] (2×), 3 [8 of 10 alive], 5 % of control [7 of 10 alive] | survivor count [1]: 3 of 10, 4 of 10, 5 of 10, 6 of 10 | survivor count (dose: 300.0 mg/kg/injection, schedule: Q01DX011 (ip), vehicle: other): 1 of 10, 2 of 10, 5 of 10

CC(=O)[C@H]1CC[C@H]2[C@@H]3CCC4=CC(=O)CC[C@]4(C)[C@H]3CC[C@]12C
T/C (dose: 125.0 mg/kg/injection, schedule: Q01DX011 (sc), vehicle: steroid suspending solution): 144 % of control [9 of 10 alive] | T/C (dose: 1000.0 mg/kg/injection, schedule: Q01DX011 (sc), vehicle: steroid suspending solution): 126 % of control

Cc1cc(Nc2cccc(Cl)c2)nc(N)n1
survivor count (dose: 62.0 mg/kg/injection, schedule: Q01DX011 (ip), vehicle: methylcellulose (MC)): 2 of 10

Nc1nc(SCc2cccnc2)c2[nH]cnc2n1
survivor count (dose: 20.0 mg/kg/injection, schedule: Q01DX011 (ip), vehicle: methylcellulose (MC)): 6 of 10 | survivor count (dose: 65.0 mg/kg/injection, schedule: Q01DX011 (ip), vehicle: methylcellulose (MC)): 1 of 10
